PubChem BioAssay AID1671195 – Yale University | 2021

Aim: 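Genes whose knockdown alters LDL uptake in liver cancer cells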 (primary screen)
Cells: human Huh7 hepatoma cells
Knock-down reagent: siRNA pool against human genes, 18 nM
Duration: about 2 to 2.5 days of knockdown, then 8 h LDL uptake
Conditions: DiI-labelled LDL at 30 µg/ml for 8 h, in lipoprotein-deficient serum medium
Detection: 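Fluorescent LDL signal imaged in cells, scaled to the plate median, robust z-score for each replicate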
Scale: robust z-score: higher = more LDL uptake after knockdown
Call rule: 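Active when two or more replicates show a robust z-score above 2 or below -2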
The deposit covers about 22,000 reagents; this is a part drawn at random. About 1,510 of them (6.9%) count as active. 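Active includes knockdowns raising or lowering LDL uptake; positive z-scores mean more uptake, negative mean less.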

{"gene":"MAP1LC3A (microtubule associated protein 1 light chain 3 alpha)","robust z-score, replicate 1":0.832,"robust z-score, replicate 2":0.0238,"robust z-score, replicate 3":1.05,"outcome":"inactive"}
{"gene":"PSG8 (pregnancy specific beta-1-glycoprotein 8)","robust z-score, replicate 1":-1.28,"robust z-score, replicate 2":-1.8,"robust z-score, replicate 3":-1.55,"outcome":"inactive"}
{"gene":"LOC401599 (retired record)","robust z-score, replicate 1":-0.752,"robust z-score, replicate 2":-0.402,"robust z-score, replicate 3":-1.33,"outcome":"inactive"}
{"gene":"FUCA2 (alpha-L-fucosidase 2)","robust z-score, replicate 1":1.17,"robust z-score, replicate 2":0.321,"robust z-score, replicate 3":0.49,"outcome":"inactive"}
{"gene":"PPOX (protoporphyrinogen oxidase)","robust z-score, replicate 1":-0.904,"robust z-score, replicate 2":-1.29,"robust z-score, replicate 3":-0.903,"outcome":"inactive"}
{"gene":"PSD4 (pleckstrin and Sec7 domain containing 4)","robust z-score, replicate 1":0.857,"robust z-score, replicate 2":1.52,"robust z-score, replicate 3":-0.519,"outcome":"inactive"}
{"gene":"IL18RAP (interleukin 18 receptor accessory protein)","robust z-score, replicate 1":0.534,"robust z-score, replicate 2":-0.0942,"robust z-score, replicate 3":0.164,"outcome":"inactive"}
{"gene":"LOC285658 (retired record)","robust z-score, replicate 1":-1.68,"robust z-score, replicate 2":-1.33,"robust z-score, replicate 3":-1.54,"outcome":"inactive"}
{"gene":"LOC341370 (retired record)","robust z-score, replicate 1":0.133,"robust z-score, replicate 2":-0.354,"robust z-score, replicate 3":-0.209,"outcome":"inactive"}
{"gene":"EIF5A2 (eukaryotic translation initiation factor 5A2)","robust z-score, replicate 1":0.54,"robust z-score, replicate 2":-0.121,"robust z-score, replicate 3":0.138,"outcome":"inactive"}
{"gene":"FAM221B (family with sequence similarity 221 member B)","robust z-score, replicate 1":-0.434,"robust z-score, replicate 2":-1.18,"robust z-score, replicate 3":-1.04,"outcome":"inactive"}
{"gene":"ETF1 (eukaryotic translation termination factor 1)","robust z-score, replicate 1":0.852,"robust z-score, replicate 2":0.887,"robust z-score, replicate 3":0.619,"outcome":"inactive"}
{"gene":"GOLPH3 (golgi phosphoprotein 3)","robust z-score, replicate 1":-0.941,"robust z-score, replicate 2":-0.364,"robust z-score, replicate 3":-0.506,"outcome":"inactive"}
{"gene":"ZNF24 (zinc finger protein 24)","robust z-score, replicate 1":0.639,"robust z-score, replicate 2":1.06,"robust z-score, replicate 3":0.868,"outcome":"inactive"}
{"gene":"KYAT1 (kynurenine aminotransferase 1)","robust z-score, replicate 1":-0.903,"robust z-score, replicate 2":-0.38,"robust z-score, replicate 3":-0.602,"outcome":"inactive"}
{"gene":"FIP1L1 (factor interacting with PAPOLA and CPSF1)","robust z-score, replicate 1":-1.61,"robust z-score, replicate 2":-1.82,"robust z-score, replicate 3":-1.44,"outcome":"inactive"}

An excerpt taken from the entries so far:
{"gene":"PSD4 (pleckstrin and Sec7 domain containing 4)","robust z-score, replicate 1":0.857,"robust z-score, replicate 2":1.52,"robust z-score, replicate 3":-0.519,"outcome":"inactive"}
{"gene":"IL18RAP (interleukin 18 receptor accessory protein)","robust z-score, replicate 1":0.534,"robust z-score, replicate 2":-0.0942,"robust z-score, replicate 3":0.164,"outcome":"inactive"}
